From the supplement of paper PMC10849652
The other results are listed elsewhere or left out.

By UniProt entry, the sequences of proteins in these tests, tags left out. Where a name states a change or a piece, a line headed by the entry shows the natural chain unless it says otherwise.
UniProt Q9Y277: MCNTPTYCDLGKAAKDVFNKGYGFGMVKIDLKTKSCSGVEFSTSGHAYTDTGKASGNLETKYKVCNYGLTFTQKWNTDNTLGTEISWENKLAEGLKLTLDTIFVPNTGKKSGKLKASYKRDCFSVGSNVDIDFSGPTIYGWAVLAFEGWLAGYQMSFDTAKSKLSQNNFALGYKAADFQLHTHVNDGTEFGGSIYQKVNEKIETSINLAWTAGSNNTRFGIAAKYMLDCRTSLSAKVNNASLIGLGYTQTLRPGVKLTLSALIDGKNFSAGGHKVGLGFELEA
UniProt Q9H1C4: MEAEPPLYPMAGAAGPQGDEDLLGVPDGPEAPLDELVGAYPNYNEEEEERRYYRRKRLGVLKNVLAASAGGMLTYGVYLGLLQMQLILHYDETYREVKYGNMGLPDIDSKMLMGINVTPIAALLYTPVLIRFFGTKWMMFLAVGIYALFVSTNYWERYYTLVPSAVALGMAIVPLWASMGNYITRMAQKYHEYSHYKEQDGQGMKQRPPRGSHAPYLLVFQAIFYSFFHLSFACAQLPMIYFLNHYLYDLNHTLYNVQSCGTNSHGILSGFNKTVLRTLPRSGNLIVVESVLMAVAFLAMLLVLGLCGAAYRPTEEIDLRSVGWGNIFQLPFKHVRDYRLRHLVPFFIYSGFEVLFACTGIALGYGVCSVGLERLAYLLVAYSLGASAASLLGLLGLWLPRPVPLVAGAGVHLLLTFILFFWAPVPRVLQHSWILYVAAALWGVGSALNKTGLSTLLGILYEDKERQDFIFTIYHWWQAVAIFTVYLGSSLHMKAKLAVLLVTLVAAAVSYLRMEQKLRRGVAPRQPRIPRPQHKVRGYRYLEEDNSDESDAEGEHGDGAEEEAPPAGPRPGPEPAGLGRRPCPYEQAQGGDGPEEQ
UniProt O14957: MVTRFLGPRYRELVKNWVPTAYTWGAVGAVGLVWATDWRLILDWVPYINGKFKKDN
UniProt P11172: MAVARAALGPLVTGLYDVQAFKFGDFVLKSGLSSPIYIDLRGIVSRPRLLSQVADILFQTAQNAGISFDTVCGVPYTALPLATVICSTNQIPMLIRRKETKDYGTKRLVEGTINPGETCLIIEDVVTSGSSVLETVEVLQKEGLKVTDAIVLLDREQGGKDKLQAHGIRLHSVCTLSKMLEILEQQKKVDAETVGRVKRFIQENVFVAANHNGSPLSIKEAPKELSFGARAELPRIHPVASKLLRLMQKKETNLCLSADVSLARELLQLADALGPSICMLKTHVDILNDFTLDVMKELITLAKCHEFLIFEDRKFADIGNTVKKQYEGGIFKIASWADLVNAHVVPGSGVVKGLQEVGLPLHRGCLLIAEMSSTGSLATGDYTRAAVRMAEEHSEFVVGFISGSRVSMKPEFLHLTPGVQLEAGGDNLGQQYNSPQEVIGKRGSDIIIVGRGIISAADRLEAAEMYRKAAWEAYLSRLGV
UniProt O95292, whole entry, looked up: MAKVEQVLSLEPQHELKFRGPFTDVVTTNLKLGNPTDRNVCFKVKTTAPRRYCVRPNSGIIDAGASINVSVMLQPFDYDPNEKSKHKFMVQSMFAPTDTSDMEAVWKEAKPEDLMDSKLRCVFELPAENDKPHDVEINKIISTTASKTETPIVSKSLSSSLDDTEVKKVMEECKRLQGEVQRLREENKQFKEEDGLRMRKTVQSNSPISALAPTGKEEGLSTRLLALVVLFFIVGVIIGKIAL
UniProt Q9BZM5, whole entry, looked up: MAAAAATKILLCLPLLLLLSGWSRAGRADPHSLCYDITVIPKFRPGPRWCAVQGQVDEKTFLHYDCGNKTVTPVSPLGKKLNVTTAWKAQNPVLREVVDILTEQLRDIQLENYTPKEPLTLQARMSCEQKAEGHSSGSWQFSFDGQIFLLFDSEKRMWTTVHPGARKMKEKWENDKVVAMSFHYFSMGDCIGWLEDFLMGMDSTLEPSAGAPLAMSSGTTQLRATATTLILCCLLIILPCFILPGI
UniProt Q9BRT2: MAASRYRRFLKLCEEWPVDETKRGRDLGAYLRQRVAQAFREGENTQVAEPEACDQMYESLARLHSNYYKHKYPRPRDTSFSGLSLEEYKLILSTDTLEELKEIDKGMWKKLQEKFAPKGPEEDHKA
UniProt P31930: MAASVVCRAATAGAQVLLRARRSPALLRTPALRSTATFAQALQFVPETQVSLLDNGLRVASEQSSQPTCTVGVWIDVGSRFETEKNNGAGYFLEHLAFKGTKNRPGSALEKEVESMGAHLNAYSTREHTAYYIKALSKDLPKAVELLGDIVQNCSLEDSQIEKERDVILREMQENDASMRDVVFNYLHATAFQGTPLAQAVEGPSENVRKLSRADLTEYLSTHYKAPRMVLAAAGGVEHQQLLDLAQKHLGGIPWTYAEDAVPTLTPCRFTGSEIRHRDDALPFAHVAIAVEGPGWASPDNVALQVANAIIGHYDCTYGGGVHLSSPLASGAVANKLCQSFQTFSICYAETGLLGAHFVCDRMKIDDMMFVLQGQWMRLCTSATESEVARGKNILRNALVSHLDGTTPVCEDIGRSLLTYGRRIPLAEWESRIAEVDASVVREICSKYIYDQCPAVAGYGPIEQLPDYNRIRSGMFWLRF
UniProt O60763: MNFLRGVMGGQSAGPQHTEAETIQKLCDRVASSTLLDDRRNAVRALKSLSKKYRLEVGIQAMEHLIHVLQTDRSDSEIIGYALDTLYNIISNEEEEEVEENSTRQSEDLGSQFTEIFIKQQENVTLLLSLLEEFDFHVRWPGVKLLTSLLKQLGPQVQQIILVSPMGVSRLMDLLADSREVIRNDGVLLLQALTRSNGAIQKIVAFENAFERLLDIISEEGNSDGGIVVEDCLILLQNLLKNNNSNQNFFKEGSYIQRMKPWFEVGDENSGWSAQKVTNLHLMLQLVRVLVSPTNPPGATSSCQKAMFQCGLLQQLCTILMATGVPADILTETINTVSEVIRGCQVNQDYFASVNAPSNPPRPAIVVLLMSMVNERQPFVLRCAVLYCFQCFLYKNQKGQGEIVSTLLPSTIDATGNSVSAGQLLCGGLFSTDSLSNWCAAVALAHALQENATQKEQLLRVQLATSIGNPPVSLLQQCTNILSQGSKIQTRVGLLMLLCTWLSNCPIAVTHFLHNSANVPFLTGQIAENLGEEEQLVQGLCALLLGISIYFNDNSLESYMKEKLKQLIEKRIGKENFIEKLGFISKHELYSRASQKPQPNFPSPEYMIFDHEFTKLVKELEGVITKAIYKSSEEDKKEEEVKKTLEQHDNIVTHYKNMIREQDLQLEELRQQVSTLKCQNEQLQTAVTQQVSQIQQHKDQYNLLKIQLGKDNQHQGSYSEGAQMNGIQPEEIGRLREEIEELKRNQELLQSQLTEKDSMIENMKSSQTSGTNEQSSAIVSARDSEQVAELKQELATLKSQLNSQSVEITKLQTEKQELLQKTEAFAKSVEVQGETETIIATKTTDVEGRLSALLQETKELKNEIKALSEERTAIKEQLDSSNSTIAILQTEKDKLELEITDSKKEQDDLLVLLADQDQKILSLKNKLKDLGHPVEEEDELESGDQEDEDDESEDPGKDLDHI
UniProt Q6PHR2: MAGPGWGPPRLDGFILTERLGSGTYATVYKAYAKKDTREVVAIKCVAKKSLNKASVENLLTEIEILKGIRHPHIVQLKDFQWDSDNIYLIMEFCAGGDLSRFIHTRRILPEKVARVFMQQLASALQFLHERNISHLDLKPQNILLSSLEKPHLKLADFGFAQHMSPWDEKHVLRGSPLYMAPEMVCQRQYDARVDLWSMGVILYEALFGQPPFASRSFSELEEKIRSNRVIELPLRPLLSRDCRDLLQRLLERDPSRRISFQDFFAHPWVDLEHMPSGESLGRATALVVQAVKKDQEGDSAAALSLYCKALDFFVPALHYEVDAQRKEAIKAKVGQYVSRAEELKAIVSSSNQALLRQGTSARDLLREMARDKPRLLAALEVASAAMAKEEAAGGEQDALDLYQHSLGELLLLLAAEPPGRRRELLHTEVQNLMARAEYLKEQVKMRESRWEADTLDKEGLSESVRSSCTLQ
UniProt P55072, whole entry, looked up: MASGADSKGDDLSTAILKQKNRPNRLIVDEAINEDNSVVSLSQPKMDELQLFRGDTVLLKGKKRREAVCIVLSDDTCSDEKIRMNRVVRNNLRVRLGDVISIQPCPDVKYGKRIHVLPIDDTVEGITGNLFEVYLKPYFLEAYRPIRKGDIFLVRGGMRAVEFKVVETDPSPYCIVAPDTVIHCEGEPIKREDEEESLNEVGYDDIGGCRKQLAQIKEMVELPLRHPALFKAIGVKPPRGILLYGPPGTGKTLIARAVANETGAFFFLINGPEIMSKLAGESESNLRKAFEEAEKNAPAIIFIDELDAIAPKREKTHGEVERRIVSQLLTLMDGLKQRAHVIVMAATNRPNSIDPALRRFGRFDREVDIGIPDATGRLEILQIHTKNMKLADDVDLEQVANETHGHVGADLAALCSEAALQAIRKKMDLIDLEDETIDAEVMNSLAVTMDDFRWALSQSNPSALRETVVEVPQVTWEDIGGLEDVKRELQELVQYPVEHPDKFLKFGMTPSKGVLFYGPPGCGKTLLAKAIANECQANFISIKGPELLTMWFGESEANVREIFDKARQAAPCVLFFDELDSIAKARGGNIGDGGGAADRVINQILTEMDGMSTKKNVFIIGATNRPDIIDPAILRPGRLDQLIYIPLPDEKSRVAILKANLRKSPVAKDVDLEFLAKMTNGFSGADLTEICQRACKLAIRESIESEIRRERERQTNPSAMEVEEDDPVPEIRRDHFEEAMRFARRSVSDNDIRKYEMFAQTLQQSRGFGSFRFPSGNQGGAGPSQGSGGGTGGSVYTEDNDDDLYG
UniProt P47985: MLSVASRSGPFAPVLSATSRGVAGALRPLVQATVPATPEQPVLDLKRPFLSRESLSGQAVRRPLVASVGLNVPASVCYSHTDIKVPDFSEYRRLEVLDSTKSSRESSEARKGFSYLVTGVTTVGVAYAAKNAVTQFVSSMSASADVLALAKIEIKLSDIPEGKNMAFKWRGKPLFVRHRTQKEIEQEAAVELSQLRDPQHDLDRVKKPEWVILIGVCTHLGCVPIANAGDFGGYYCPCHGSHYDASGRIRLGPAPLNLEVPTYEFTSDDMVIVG
UniProt Q16851: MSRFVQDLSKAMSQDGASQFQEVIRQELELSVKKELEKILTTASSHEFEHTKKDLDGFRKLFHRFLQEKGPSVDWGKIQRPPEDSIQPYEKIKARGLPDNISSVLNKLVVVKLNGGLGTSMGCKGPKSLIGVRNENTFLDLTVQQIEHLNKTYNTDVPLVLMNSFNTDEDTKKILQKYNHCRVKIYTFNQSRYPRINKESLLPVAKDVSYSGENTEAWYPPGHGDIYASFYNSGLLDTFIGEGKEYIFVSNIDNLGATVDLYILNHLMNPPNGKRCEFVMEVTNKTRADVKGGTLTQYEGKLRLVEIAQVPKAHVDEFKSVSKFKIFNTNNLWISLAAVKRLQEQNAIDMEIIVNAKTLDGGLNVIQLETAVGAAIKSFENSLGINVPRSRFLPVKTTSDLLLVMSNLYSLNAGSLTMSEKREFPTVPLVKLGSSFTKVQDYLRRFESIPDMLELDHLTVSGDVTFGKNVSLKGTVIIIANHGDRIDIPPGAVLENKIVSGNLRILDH
UniProt P51784: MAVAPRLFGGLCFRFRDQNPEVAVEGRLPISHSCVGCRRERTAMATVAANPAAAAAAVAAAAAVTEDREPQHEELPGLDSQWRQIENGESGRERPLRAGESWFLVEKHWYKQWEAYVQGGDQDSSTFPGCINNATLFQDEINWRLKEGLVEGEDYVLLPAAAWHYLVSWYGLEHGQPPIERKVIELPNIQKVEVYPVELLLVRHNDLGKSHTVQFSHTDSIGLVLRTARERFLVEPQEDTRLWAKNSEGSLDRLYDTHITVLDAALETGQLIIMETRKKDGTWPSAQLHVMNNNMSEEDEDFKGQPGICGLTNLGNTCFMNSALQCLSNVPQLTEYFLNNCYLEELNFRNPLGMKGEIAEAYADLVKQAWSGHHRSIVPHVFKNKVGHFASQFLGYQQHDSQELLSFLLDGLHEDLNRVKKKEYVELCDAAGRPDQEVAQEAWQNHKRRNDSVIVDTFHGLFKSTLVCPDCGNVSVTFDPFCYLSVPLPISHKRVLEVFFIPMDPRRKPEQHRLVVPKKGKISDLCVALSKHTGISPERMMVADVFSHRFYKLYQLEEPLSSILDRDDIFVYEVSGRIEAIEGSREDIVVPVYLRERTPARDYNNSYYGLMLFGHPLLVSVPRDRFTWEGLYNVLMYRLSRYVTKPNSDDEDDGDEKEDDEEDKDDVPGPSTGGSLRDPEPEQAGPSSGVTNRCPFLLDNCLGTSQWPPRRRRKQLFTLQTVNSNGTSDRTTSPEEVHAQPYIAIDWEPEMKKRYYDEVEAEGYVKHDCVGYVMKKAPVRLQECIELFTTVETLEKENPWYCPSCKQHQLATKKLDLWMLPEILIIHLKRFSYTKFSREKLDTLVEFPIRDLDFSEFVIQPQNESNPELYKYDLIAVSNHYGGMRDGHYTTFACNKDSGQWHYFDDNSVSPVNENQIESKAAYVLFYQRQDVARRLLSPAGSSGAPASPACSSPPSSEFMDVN

compound: C[C@H](Nc1ncnc2nc[nH]c12)c1cc2cccc(Cl)c2c(=O)n1-c1ccccc1 [duvelisib]; assay: log2 fold change, soluble protein after heating vs DMSO (PISA); higher = thermal stabilisation; K562 lysate, 10 uM; active = over 0.2 and 3.5 SD of the protein, either way, in both replicates (recomputed)
How it was run: (§1)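 Soluble protein was defined as the supernatant remaining after 21,000xg for 90 min, following pooling of heated aliquots and adjustment to 0.5% NP-40 at 4°C. Before that, crude K562 extract at 1 mg/mL protein in PBS pH 7.4 with 1 mM MgCl2 was treated with 10 μM compound for 30 min and heated for 3 min across 48°C-58°C. Quantification used TMTpro 16plex LC-MS/MS with channel sums equalised, and values are log-two fold changes in thermal stability relative to solvent controls from duplicates.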

log2 fold change, inactive:
VDAC3 (UniProt Q9Y277) -0.013, UNC93B1 (UniProt Q9H1C4) -0.09, USP14 (UniProt P54578) -0.003, UQCR11 (UniProt O14957) 0.01, UMPS (UniProt P11172) -0.026, VAPB (UniProt O95292) -0.01, ULBP2 (UniProt Q9BZM5) 0.005, UQCC2 (UniProt Q9BRT2) 0.026, UNC45A (UniProt Q9H3U1) -0.003, USP47 isoform 4 (UniProt Q96K76) 0.001

compound: Cc1cc(Nc2cc(CN3CCOCC3)c3nc(C)c(Cc4ccc(Cl)cc4F)n3n2)n[nH]1 [gandotinib]; assay: as above
How it was run: as §1

log2 fold change, inactive:
UQCRC1 (UniProt P31930) 0.01, VDAC2 (UniProt Q5JSD1) -0.023, USO1 (UniProt O60763) 0.193, ULK3 isoform 4 (UniProt Q6PHR2) -0.08, USP1 (UniProt O94782) -0.01, VCP (UniProt P55072) -0.02, USP48 (UniProt Q86UV5) 0.068, UQCRFS1 (UniProt P47985) 0.006, VASP (UniProt P50552) 0.005, UROS (UniProt P10746) -0.034, UGP2 (UniProt Q16851) -0.009, UVRAG (UniProt Q9P2Y5) 0.11, UNC5B (UniProt Q8IZJ1) -0.094, USP11 (UniProt P51784) -0.031
